Test results as given in the supplement of paper PMC11348887.
The list shows a part of the results. Small differences around the control level are noise.

Legend:
Conditions in all cases: 5 µM; treatment: days 7-14 after plating, readout day 21
[1] = tested on: hPSC-derived cortical neurons (WA09); test: nucleus area z-score vs screen plate; higher = larger nuclei (more mature)
[2] = tested on: hPSC-derived cortical neurons (WA09); test: total neurite length per nucleus (MAP2) z-score; higher = more neurite growth
[3] = tested on: hPSC-derived cortical neurons (WA09); test: nucleus roundness z-score vs screen plate; higher = rounder nuclei (more mature)
[4] = tested on: hPSC-derived cortical neurons (WA09); test: KCl-induced FOS+/EGR-1+ double-positive nuclei fraction z-score (KCl minus unstimulated); higher = stronger activity-induced IEG response

| Compound | nucleus area z-score [1] | total neurite length per nucleus (z-score) [2] | nucleus roundness z-score [3] | KCl-induced FOS+/EGR-1+ double-positive nuclei fraction z-score [4] |
| --- | --- | --- | --- | --- |
| CC(=O)OCC(=O)[C@@]1(O)[C@H](C)C[C@H]2[C@@H]3CCC4=CC(=O)C=C[C@]4(C)[C@@]3(F)[C@@H](O)C[C@@]21C [Dexamethasone Acetate] | -0.975 | -0.759 | -1.48 | -1.87 |
| O=c1oc2ccccc2c(O)c1Cc1c(O)c2ccccc2oc1=O [Dicoumarol] | 0.481 | 0.23 | 0.0693 | 0.183 |
| N#Cc1ccc(C(c2ccc(C#N)cc2)n2cncn2)cc1 [Letrozole] | 0.407 | 0.386 | 1.45 | -0.099 |
| O=C(/C=C/c1ccccc1)NC(NC(=S)Nc1cccc2cccnc12)C(Cl)(Cl)Cl (stereo not given) [Salubrinal] | 0.444 | -0.119 | -0.218 | 0.62 |
| O=C1NC(=O)/C(=C/c2cccc(C(F)(F)F)c2)S1 | 0.15 | 0.845 | -0.0331 | 0.819 |
| COc1ccccc1N1CCN(CCN2C(=O)CC3(CCCC3)CC2=O)CC1 | 0.31 | 0.873 | 0.996 | 0.589 |
| Cc1ccccc1C(C(=O)NC1CCCCC1)N(C(=O)Cn1ccnc1C)c1cccc(F)c1 (stereo not given) | -0.236 | -0.359 | -0.611 | -0.835 |
| O=C(O)c1ccc(CN2CCC(CN[C@@H]3C[C@H]3c3ccccc3)CC2)cc1 | 2.38 | 2.05 | 0.452 | 3.41 |
| Cc1nn(-c2ccccc2)c(C)c1C=NN1CCN(Cc2ccccc2)CC1 | 0.488 | 1.49 | 1.38 | 0.479 |
| Oc1ccc(-c2nc(-c3ccc(F)cc3)c(-c3ccncc3)[nH]2)cc1 | 0.0285 | 0.376 | 0.174 | 1.08 |
| CC(C)(O)CC(=O)NCCn1ccc2ncnc(Nc3ccc(Oc4cccc(C(F)(F)F)c4)c(Cl)c3)c21 | 0.328 | 0.649 | 0.00406 | 0.705 |
| Nc1ccc2cc3ccc(N)cc3nc2c1 [Proflavine Hemisulfate] | -8.25 | -1.94 | -10.5 | 5.4 |
| C=CC(=O)Nc1cccc(Nc2nc(Nc3ccc(OCCOC)cc3)ncc2F)c1 | -2.4 | 0.21 | -0.426 | 1.52 |
| CN(C)Cc1cccc(N=C(c2ccccc2)c2c(O)[nH]c3cc(C(=O)N(C)C)ccc23)c1 | 1.7 | -0.196 | -0.944 | -0.416 |
| CC[C@H](C)[C@@H]1NC(=O)[C@H](Cc2ccc(O)cc2)NC(=O)[C@@H](N)CSSC[C@@H](C(=O)N2CCC[C@H]2C(=O)N[C@@H](CC(C)C)C(=O)NCC(N)=O)NC(=O)[C@H](CC(N)=O)NC(=O)[C@H](CCC(N)=O)NC1=O [Oxytocin (Syntocinon)] | 0.189 | 0.0425 | -0.262 | -0.445 |
| Nc1ccc(S(N)(=O)=O)cc1 [Sulfanilamide] | 0.264 | 0.228 | -0.000484 | -0.475 |
| C/C(=C\C(=O)Nc1ccccc1C(=O)O)c1ccc2ccccc2c1 | -0.0609 | 0.82 | 0.624 | 1.03 |
| Clc1ccc(C(Cn2ccnc2)OCc2ccc(Sc3ccccc3)cc2)c(Cl)c1 (stereo not given) [Fenticonazole Nitrate] | -2.17 | -1.52 | -1.52 | 0.858 |
| COCCOc1ccc2c(c1)ncn2-c1ccc2cccc(N3CCC(N)CC3)c2n1 | 0.498 | -1.26 | -0.272 | -1.21 |
| CCCOc1ccn2c(C(C)=O)cc(-c3ccccc3S(C)(=O)=O)c2c1 | 1.73 | -0.00448 | -0.13 | 1.71 |
| CC(=O)Nc1cccc(-n2c(=O)n(C3CC3)c(=O)c3c(Nc4ccc(I)cc4F)n(C)c(=O)c(C)c32)c1 | -0.189 | -0.488 | -0.631 | -1.08 |
| CCCc1cc(C)[nH]c(=O)c1CNC(=O)c1cc(-c2ccc(N3CCN(C(C)C)CC3)nc2)cc2c1cnn2C(C)C | 0.498 | 0.352 | 0.0137 | 0.106 |
| CCN1CCN(c2cc3c(cc2F)c(=O)c(C(=O)O)cn3C2CC2)CC1 [Enrofloxacin] | -0.975 | 0.148 | -0.839 | 0.691 |
| CCNC(=O)Nc1ccc(-c2nc3c(c(N4CCOC[C@@H]4C)n2)CCN(C2COC2)C3)cc1 | -4.28 | -1.61 | -5.56 | -1.03 |
| c1ccc(Cn2c(-c3ccc(OC[C@H](C4CCNCC4)n4c(-c5ccccc5)nc5ccccc54)cc3)nc3ccccc32)cc1 [Deltarasin] | -14.4 | -3.42 | -1.96 | -0.746 |

Gathered by group, the entries above with an NH in an aromatic ring (3)

| Compound | nucleus area z-score [1] | total neurite length per nucleus (z-score) [2] | nucleus roundness z-score [3] | KCl-induced FOS+/EGR-1+ double-positive nuclei fraction z-score [4] |
| --- | --- | --- | --- | --- |
| Oc1ccc(-c2nc(-c3ccc(F)cc3)c(-c3ccncc3)[nH]2)cc1 | 0.0285 | 0.376 | 0.174 | 1.08 |
| CN(C)Cc1cccc(N=C(c2ccccc2)c2c(O)[nH]c3cc(C(=O)N(C)C)ccc23)c1 | 1.7 | -0.196 | -0.944 | -0.416 |
| CCCc1cc(C)[nH]c(=O)c1CNC(=O)c1cc(-c2ccc(N3CCN(C(C)C)CC3)nc2)cc2c1cnn2C(C)C | 0.498 | 0.352 | 0.0137 | 0.106 |
